According to paper PMC5856799:
Results are given in words; binding and its absence hold for the method and conditions named. Binding seen in cells or lysates may run through a third protein. Some entries that bind do so weakly or less than the wild type.

Sequences of proteins named here, by UniProt entry; tags and fusion partners are left off. Residues count along the entry.
UniProt P51884, residues 19-338: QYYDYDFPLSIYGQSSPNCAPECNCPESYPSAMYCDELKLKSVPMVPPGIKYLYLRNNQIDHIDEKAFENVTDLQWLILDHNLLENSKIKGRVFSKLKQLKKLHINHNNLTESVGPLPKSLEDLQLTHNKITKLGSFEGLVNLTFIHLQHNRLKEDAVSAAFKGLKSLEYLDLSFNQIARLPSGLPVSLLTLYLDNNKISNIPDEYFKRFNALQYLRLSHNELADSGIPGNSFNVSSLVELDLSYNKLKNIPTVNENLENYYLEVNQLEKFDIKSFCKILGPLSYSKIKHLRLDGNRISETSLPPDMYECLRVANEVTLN

Target: T1, p120 catenin (human (endogenous in A549 and H460)) (UniProt O60716)
T1 sequence: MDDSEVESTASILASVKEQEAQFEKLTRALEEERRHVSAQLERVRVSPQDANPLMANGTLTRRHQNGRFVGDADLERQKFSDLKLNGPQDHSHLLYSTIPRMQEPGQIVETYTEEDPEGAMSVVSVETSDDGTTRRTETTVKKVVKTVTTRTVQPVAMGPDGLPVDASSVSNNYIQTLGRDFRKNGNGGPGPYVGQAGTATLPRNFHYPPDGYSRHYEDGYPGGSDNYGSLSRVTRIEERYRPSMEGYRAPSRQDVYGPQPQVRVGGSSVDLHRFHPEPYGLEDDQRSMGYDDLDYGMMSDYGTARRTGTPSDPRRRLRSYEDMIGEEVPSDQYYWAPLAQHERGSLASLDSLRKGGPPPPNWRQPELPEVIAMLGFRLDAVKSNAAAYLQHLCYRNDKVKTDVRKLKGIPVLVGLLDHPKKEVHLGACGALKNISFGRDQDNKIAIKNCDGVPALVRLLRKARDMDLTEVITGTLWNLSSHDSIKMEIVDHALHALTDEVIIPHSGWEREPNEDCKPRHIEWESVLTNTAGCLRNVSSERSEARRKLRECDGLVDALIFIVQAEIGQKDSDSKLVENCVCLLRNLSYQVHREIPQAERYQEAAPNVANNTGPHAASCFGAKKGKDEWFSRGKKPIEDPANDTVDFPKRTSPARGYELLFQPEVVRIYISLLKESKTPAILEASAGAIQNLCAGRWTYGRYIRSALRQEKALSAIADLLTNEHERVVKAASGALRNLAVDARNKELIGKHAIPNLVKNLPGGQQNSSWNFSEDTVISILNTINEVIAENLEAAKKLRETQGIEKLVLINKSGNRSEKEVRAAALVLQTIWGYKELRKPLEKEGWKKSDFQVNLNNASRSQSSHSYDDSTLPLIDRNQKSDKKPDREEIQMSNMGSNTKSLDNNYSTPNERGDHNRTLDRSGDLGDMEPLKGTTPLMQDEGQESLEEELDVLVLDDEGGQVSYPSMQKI
Experiment: co-IP; endogenous proteins; total cell lysates of control and LD (lumican shRNA) cells in 1% NP-40, 50 mM Tris pH 7.4, 150 mM NaCl, 2 mM EDTA, 50 mM NaF, 10% glycerol; immunoprecipitated with anti-p120ctn antibody, protein G; western blot for lumican

**Q.** With lumican (from UniProt P51884 19-338) as the substance, how does the binding read?
**A.** Its binding is “binds”.
